No constants are given. Whether binding was seen depends on the method and setting. Some results given as binding are weak or reduced against the parent protein; the word gives no strength.
How the values were obtained:
[1] = biological target: T1, 2×Strep-Gid4 (S. cerevisiae) (UniProt P38263); test: pull-down; 0.5 µM purified GID^SR4 or Gid12 bound GID^SR4 (Gid8-3×FLAG, untagged Gid4) mixed with 0-2.5 µM 2×Strep-Gid4 or 4 µM 2×Strep-Gid4^mut, 20 min at room temperature; Strep-Tactin resin at 4 °C; 25 mM HEPES pH 7.5, 150 mM NaCl, 1 mM DTT; SDS-PAGE, Coomassie; both purified
T1 sequence: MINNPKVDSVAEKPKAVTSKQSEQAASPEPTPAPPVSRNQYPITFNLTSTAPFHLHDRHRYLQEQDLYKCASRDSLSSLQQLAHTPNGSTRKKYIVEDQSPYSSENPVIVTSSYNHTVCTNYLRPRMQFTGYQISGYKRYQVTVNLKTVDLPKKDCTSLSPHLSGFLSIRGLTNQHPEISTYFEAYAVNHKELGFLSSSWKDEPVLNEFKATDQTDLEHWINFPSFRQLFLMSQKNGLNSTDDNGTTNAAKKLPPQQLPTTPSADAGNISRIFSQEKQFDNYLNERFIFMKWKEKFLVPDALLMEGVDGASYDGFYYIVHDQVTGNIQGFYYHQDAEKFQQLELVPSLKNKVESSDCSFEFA

The chains behind the UniProt entries cited, without tags or fusion partners. Where a name states a change or a piece, a line headed by the entry shows the natural chain unless it says otherwise.
UniProt P53076: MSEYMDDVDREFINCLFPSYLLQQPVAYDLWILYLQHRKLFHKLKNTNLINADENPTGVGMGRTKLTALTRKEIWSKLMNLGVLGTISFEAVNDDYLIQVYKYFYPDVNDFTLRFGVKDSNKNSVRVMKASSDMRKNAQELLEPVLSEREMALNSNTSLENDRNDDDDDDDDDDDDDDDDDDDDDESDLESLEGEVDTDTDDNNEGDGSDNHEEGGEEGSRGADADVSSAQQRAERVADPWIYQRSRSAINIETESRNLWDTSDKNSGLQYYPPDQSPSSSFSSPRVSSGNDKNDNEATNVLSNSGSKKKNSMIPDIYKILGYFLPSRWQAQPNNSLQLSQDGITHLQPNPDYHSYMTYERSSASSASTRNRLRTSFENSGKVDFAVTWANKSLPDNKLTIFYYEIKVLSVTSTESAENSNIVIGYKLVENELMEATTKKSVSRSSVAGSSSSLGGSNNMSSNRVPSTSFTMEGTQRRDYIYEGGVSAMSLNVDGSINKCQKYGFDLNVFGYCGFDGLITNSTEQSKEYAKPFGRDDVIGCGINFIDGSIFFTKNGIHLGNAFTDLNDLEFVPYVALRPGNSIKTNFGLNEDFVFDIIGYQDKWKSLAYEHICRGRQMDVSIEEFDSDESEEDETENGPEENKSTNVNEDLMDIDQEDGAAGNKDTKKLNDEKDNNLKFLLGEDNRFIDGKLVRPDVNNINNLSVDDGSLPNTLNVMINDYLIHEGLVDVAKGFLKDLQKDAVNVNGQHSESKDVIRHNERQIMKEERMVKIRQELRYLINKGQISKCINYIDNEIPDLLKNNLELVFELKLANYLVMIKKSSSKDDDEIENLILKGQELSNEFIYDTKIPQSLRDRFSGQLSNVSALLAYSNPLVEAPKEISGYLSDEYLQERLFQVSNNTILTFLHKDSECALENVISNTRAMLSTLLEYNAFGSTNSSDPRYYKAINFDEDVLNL
UniProt Q12027: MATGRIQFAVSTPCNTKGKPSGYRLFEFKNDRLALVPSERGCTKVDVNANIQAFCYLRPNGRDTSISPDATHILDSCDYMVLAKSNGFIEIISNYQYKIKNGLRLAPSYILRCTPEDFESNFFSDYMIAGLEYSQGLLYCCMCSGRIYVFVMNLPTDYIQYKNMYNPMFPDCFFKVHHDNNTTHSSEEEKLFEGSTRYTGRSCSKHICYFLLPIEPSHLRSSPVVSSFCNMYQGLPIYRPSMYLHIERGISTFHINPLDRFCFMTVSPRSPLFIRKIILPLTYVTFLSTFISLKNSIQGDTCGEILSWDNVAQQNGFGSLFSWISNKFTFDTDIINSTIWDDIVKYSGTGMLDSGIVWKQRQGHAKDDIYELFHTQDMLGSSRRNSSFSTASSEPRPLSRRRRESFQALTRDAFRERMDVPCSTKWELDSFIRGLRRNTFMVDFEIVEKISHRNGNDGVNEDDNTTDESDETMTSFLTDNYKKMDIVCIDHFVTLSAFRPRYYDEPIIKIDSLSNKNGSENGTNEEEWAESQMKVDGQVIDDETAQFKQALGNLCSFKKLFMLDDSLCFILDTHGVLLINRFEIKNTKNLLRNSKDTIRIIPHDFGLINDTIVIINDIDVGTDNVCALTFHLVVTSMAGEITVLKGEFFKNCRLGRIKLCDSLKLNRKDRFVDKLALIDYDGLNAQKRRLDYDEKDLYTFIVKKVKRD

[2] = biological target: T2, 2×Strep-Gid4_(1-358aa) (with C terminal 359-362 aa deleted) (S. cerevisiae) (UniProt P38263); test: as above
T2 sequence: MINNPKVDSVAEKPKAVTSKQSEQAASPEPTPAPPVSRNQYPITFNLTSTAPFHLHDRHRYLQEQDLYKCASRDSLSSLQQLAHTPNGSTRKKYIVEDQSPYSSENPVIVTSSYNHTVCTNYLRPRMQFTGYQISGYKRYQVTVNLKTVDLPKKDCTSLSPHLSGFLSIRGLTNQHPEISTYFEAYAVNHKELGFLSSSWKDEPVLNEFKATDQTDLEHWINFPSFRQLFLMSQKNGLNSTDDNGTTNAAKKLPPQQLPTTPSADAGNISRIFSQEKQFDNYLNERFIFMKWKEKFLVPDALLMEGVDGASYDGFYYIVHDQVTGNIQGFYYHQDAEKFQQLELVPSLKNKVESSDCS

## GID^SR4 complex with 3×FLAG at the C-terminus of Gid8 (untagged Gid4) (from UniProt P53076 1-958; Q12508 1-421; P38263 1-362; P40547 1-921; P40208 1-455; P40492 1-516)
[1]
  binding: binds
[2]
  binding: no binding (tested: 4 µM)

## Gid12 bound GID^SR4 complex with 3×FLAG at the C-terminus of Gid8 (from UniProt Q12027 1-708; P53076 1-958; Q12508 1-421; P38263 1-362; P40547 1-921; P40208 1-455; P40492 1-516)
[2]
  binding: no binding (tested: 4 µM)

Source: PMC9160049, “Cryo-EM structures of Gid12-bound GID E3 reveal steric blockade as a mechanism inhibiting substrate ubiquitylation” (Nature Communications, 2022)
